Assays:
Format in all cases: cell-based
[1] = system: Trypanosoma cruzi (Tulahuen C2C4 strain); assay: in vitro growth-inhibiting screening assay, protozoa of American trypanosomiasis; conditions: EC50 rat L6 cell / EC50 protozoa of American trypanosomiasis
Protocol: The test was done using a trypomastigote and an amastigote of the protozoa of Trypanosoma cruzi (Tulahuen C2C4 strain) present in the infected rat L6 cells. The L6 cells were cultured in RPMI-1640 medium supplemented with 1% of […] (200 mM) and 10% of fetal calf serum under CO2 concentration of 5%, at 37° C.
A test sample was prepared by dissolving the test compounds according to the present invention and a positive control drug (benznidazole) in DMSO to a predetermined concentration. Culture medium containing the protozoa of 5×10^3 was added into each well of 96-well culture plate and cultured for 48 hours. After the medium was exchanged, the test sample comprising the predetermined amount of the test compound, and DMSO without the test compound were added into each well in duplicate.
After incubation of the culture plate for 96 hours in an incubator, a growth-inhibiting activity was assayed as follows. CPRG/Nonidet (50 μL) was added to each well followed by a further 2˜6-hour culture. The culture plate was then attached to an absorption micro titer plate reader, the absorbance at 540 nm was detected to calculate an infection ratio of the protozoa with respect to a group treated with the test sample and a control group. A growth-inhibiting ratio was then calculated from the resulting infection ratio in accordance with the following equation to determine 50% growth-inhibiting concentration (EC50).
Growth-inhibiting ratio (%)=[1−(b−a)/(c−a)]×100 • a: Initial infection ratio; • b: Infection ratio of the test sample group; and • c: Infection ratio of the control group.
A selective toxicity coefficient, which is used as an index for the selective toxicity for the protozoa of American trypanosomiasis, was calculated by the following equation, and the pharmaceutical effect was determined.
A selective toxicity coefficient=(EC50 value of the test sample for rat L6 cell)/(EC50 value of the test sample for the protozoa of American trypanosomiasis).

[2] = system: Plasmodium Falciparum K1 strain; assay: in vitro growth-inhibiting screening assay, chloroquine-resistant falciparum malaria; conditions: EC50 rat L6 cell / EC50 P. falciparum K1
Protocol: Plasmodium Falciparum K1 strain was used as a chloroquine-resistant protozoa of falciparum malaria. RMI-1640 sterilized by filtration was supplemented with human serum of a final concentration of 5% to be used as a culture medium. The malaria protozoa were cultured under O2 concentration of 3%, CO2 concentration of 4%, N2 concentration of 93% at 37° C.
A test sample was prepared by dissolving the test compounds according to the present invention and a positive control drug (chloroquine) in DMSO to a predetermined concentration. […]
After culture for 48 hours at 37° C., hypoxanthine labeled with radioactive tritium (^3H) of 0.5 μCi was added to each well. […] Intensity of radiation was measured by means of plate liquid scintillation counter (Wallac Co.), and an infection ratio of the protozoa of malaria was calculated with respect to a group treated with the test sample and the control. […]
Anti-malaria effect of the samples was assessed by their EC50 values for the chloroquine-resistant protozoa of falciparum malaria and the rat L6 cell. A chemotherapy coefficient, which is used as an index for the selective toxicity for the chloroquine-resistant protozoa of falciparum malaria was calculated by the following equation, and the pharmaceutical effect was determined. […]

[3] = system: Leishmania donovani (MHOM/ET/67/L82 strain); assay: in vitro growth-inhibiting screening assay, protozoa of Leishmaniasis; conditions: EC50 rat L6 cell / EC50 protozoa of Leishmaniasis
Protocol: This test was done using the protozoa of Leishmania donovani (MHOM/ET/67/L82 strain). The protozoa were subcultured using Syrian Golden hamster and an amastigote was obtained therefrom. The amastigotes were cultured in SM medium supplemented with 10% of heat-treated fetal calf serum (pH 5.4) under CO2 concentration of 5%, at 37° C.
A test sample was prepared by dissolving the test compounds according to the present invention and a positive control drug (Miltefosine) in DMSO to a predetermined concentration. Culture medium containing a predetermined number of the protozoa was added into each well of a 96-well culture plate, and the concentration of the amastigotes was measured by means of CASY cell analysis system (Dermany, Scharfe Co.). Test sample comprising the predetermined amount of the test compound, and DMSO without the test compound were added to the wells in duplicate.
(§1) After incubation of the culture plate for 72 hours in an incubator, a growth-inhibiting activity was assayed as follows. […] The culture plate was then attached to a fluorescence micro titer plate reader (Spectramax Gemeni XS; U.S. Molecular device Co.), the intensity of fluorescence at 588 nm was detected with excitation wave length of 536 nm to calculate an infection ratio of the protozoa with respect to a group trated with the test sample and a control group. […]

[4] = system: Trypanosoma brucei rhodensiense (STIB 900 strain); assay: in vitro growth-inhibiting screening assay, protozoa of African trypanosomiasis; conditions: EC50 rat L6 cell / EC50 protozoa of African trypanosomiasis
Protocol: This test was done using a trypomastigote of the protozoa of Trypanosoma brucei rhodensiense (STIB 900 strain) ranging in blood stream. MEM medium sterilized by filtration was supplemented with 25 mM of N-2-hydroxyethylpiperazine-2-ethanesulfonic acid (HEPES), 1 g/L of glucose, 1% of MEM non-essential amino acids, 0.2 mM of 2-mercaptoethanol, 2 mM of sodium pyruvate, 1 mM of hypoxathine and 15% of heat-treated horse serum. The protozoa were cultured under CO2 concentration of 5%, at 37° C.
A test sample was prepared by dissolving the test compounds according to the present invention and a positive control drug (Melarsoprol) in DMSO to a predetermined concentration. […]
as §1, with “Device” for “device”, “treated” for “trated”
A selective toxicity coefficient, which is used as an index for the selective toxicity for the protozoa of African trypanosomiasis, was calculated by the following equation, and the pharmaceutical effect was determined. […]

Row | Compound | Selective toxicity [1] | Selective toxicity [2] | Selective toxicity [3] | Selective toxicity [4]
1 | CCN(CC)c1ccc2nc3ccc(=[N+](CC)CC)cc-3oc2c1.[Cl-] [A-1 (60% purity)] | 27 | 860 | 1.4 | 22
2 | CCCC[N+](CCCC)=c1ccc2nc3ccc(N(C)C)cc3oc-2c1.[O-][Cl+3]([O-])([O-])[O-] [Compound A-7] | 19 | – | – | –
3 | CCN(CC)c1ccc2nc3ccc(=[N+](CC)CC)cc-3oc2c1.[Cl-] [A-1 (>95% purity)] | 1400 | – | – | –
4 | CCCC[N+](CCCC)=c1ccc2nc3ccc(N(CC)CC)cc3oc-2c1.[Cl-] [Compound A-6] | 35 | – | – | –
5 | CN(C)c1ccc2nc3ccc(=[N+](C)C)cc-3oc2c1.CN(C)c1ccc2nc3ccc(=[N+](C)C)cc-3oc2c1.[Cl-].[Cl-].[Cl][Zn][Cl] [Compound A-3] | 19 | – | – | –
